Laboratory results from doi:10.1101/2022.04.28.489951.
These are yes or no findings as the source states them, for the method shown. In cells and extracts the contact can be indirect.

Protein sequences, listed by entry. Tags and fused reporters are not part of them.
UniProt O14980: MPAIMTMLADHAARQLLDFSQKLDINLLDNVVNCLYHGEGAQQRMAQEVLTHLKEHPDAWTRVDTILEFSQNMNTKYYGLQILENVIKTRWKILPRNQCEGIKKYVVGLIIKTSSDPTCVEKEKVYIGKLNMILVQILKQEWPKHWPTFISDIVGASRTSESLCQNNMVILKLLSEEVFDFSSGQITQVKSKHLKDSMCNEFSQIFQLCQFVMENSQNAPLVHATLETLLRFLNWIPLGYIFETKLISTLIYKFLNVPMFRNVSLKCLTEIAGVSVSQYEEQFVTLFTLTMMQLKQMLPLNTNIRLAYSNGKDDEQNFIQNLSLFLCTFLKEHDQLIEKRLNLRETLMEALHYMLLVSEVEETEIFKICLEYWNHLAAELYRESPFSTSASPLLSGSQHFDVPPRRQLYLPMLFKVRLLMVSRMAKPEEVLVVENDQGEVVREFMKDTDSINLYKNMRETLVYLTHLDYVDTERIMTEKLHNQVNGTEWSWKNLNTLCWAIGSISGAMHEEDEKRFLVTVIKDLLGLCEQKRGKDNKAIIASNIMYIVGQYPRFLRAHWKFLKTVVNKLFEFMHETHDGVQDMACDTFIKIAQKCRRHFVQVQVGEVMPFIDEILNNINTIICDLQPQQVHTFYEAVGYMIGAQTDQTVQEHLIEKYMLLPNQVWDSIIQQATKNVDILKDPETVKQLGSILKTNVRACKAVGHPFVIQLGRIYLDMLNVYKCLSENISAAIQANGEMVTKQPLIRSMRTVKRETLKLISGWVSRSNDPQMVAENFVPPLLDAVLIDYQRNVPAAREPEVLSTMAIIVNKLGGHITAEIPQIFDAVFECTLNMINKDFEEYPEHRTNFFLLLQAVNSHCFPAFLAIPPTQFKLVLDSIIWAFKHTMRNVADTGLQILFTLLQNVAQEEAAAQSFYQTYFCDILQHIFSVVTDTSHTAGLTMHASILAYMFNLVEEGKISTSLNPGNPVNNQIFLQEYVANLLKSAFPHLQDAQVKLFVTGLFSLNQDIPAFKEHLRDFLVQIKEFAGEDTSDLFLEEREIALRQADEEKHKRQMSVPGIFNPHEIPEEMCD
UniProt Q9HAV4: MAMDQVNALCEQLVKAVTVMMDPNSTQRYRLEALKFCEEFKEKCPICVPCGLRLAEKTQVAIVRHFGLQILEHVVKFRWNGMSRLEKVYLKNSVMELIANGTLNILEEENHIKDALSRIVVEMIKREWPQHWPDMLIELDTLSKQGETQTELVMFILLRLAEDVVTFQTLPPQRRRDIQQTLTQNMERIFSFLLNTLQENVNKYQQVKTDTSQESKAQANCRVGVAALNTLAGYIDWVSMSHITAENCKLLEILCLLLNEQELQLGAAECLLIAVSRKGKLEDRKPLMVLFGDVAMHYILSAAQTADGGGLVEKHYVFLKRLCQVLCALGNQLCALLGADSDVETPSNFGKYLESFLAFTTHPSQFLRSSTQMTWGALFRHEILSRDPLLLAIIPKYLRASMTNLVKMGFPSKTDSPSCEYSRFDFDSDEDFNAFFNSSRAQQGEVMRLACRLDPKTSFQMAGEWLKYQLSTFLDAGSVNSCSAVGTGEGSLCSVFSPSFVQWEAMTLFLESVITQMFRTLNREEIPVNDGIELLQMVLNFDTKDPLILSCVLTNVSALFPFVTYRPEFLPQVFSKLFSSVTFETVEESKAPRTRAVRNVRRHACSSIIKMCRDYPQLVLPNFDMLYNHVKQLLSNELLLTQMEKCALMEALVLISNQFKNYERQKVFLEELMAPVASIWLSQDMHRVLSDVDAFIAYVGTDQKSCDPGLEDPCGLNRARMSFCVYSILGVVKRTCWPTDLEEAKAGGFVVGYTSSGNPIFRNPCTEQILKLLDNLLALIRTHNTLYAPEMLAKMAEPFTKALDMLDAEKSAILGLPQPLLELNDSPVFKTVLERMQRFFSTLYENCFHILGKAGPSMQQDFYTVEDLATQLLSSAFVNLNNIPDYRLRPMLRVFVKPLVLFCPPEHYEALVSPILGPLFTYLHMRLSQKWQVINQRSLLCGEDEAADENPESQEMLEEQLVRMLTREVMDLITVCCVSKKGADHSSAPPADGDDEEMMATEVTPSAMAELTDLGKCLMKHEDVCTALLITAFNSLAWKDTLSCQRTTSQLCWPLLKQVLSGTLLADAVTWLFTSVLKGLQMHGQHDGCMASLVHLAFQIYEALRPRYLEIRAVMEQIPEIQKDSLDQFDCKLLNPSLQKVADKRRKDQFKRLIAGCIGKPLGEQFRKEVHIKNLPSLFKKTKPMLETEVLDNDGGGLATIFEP

B1: XPOT (exportin-t) (protein, UniProt O43592 1-962)
chain: MDEQALLGLNPNADSDFRQRALAYFEQLKISPDAWQVCAEALAQRTYSDDHVKFFCFQVLEHQVKYKYSELTTVQQQLIRETLISWLQAQMLNPQPEKTFIRNKAAQVFALLFVTEYLTKWPKFFFDILSVVDLNPRGVDLYLRILMAIDSELVDRDVVHTSEEARRNTLIKDTMREQCIPNLVESWYQILQNYQFTNSEVTCQCLEVVGAYVSWIDLSLIANDRFINMLLGHMSIEVLREEACDCLFEVVNKGMDPVDKMKLVESLCQVLQSAGFFSIDQEEDVDFLARFSKLVNGMGQSLIVSWSKLIKNGDIKNAQEALQAIETKVALMLQLLIHEDDDISSNIIGFCYDYLHILKQLTVLSDQQKANVEAIMLAVMKKLTYDEEYNFENEGEDEAMFVEYRKQLKLLLDRLAQVSPELLLASVRRVFSSTLQNWQTTRFMEVEVAIRLLYMLAEALPVSHGAHFSGDVSKASALQDMMRTLVTSGVSSYQHTSVTLEFFETVVRYEKFFTVEPQHIPCVLMAFLDHRGLRHSSAKVRSRTAYLFSRFVKSLNKQMNPFIEDILNRIQDLLELSPPENGHQSLLSSDDQLFIYETAGVLIVNSEYPAERKQALMRNLLTPLMEKFKILLEKLMLAQDEERQASLADCLNHAVGFASRTSKAFSNKQTVKQCGCSEVYLDCLQTFLPALSCPLQKDILRSGVRTFLHRMIICLEEEVLPFIPSASEHMLKDCEAKDLQEFIPLINQITAKFKIQVSPFLQQMFMPLLHAIFEVLLRPAEENDQSAALEKQMLRRSYFAFLQTVTGSGMSEVIANQGAENVERVLVTVIQGAVEYPDPIAQKTCFIILSKLVELWGGKDGPVGFADFVYKHIVPACFLAPLKQTFDLADAQTVLALSECAVTLKTIHLKRGPECVQYLQQEYLPSLQVAPEIIQEFCQALQQPDAKVFKNYLKVFFQRAKP

What follows are molecules tested against T1, La protein (autoantigen La) (human (endogenous in U2OS)) (UniProt P05455) (assay: co-IP).
T1 sequence: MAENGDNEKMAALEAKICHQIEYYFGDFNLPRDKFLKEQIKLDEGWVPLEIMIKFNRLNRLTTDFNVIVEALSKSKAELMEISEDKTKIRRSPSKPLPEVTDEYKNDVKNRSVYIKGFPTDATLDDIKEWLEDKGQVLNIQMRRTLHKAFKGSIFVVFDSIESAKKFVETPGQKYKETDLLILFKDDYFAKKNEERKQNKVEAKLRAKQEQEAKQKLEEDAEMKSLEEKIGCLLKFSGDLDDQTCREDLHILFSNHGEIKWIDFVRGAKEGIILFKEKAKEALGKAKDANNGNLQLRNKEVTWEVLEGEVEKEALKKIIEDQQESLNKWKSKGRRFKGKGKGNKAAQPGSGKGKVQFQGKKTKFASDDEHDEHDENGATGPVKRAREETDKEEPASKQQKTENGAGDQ

binding, no binding:
XPO1 (Crm1) (from UniProt O14980 1-1071), XPO5 (Exportin-5) (from UniProt Q9HAV4 1-1204), B1
